Source: the supplement of paper PMC10849652
This is one part of the list.

Protein sequences, listed by entry. Tags and fused reporters are not part of them. Lines headed by an entry give the natural chain unless they say otherwise; changes in a name come on top.
UniProt Q16378: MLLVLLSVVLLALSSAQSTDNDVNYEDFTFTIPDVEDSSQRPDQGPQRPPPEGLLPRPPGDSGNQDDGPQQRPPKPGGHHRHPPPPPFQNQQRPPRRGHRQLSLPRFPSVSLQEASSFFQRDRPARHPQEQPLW
UniProt O14818: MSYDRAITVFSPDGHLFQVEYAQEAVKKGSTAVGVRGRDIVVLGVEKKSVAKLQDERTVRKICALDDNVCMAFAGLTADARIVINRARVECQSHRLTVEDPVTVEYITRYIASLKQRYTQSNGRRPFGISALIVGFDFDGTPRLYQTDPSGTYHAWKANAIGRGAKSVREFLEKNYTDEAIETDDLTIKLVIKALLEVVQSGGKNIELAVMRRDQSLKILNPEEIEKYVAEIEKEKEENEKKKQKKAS
UniProt Q15678: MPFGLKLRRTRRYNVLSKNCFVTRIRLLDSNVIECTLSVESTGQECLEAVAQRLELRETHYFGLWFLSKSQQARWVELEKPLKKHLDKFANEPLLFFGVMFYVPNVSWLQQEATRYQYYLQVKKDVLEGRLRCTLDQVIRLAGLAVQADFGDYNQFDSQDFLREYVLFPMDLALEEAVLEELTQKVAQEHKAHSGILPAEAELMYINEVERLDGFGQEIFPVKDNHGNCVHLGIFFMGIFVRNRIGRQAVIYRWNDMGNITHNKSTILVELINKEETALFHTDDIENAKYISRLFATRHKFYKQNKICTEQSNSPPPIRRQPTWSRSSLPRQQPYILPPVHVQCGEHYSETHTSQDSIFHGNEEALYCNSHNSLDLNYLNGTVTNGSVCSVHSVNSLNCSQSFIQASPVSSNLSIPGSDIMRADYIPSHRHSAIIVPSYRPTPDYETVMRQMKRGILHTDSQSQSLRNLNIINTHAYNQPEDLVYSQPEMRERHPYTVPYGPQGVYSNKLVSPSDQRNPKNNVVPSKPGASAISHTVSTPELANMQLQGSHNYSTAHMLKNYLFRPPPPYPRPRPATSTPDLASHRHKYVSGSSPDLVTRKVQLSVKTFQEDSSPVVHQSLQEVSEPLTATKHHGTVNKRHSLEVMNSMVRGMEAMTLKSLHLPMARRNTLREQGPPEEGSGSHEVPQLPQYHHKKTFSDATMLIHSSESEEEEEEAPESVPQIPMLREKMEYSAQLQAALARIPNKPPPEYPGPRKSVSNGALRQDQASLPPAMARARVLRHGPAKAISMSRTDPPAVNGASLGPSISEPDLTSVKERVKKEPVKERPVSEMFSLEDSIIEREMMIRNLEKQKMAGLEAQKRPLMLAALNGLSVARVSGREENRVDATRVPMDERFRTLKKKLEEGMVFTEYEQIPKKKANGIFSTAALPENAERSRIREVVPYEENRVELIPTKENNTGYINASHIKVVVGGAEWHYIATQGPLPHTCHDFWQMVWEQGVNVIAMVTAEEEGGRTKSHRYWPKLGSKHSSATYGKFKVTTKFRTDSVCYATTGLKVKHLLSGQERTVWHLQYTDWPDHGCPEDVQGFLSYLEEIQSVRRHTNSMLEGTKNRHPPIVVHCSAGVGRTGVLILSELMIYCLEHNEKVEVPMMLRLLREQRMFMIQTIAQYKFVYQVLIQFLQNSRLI
UniProt O14668: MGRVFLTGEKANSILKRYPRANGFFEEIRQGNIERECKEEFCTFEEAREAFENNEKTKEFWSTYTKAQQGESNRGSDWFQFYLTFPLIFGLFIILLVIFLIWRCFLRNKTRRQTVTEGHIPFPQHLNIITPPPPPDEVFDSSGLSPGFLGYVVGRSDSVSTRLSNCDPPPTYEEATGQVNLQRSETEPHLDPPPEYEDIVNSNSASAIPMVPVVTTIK
UniProt Q9ULL5: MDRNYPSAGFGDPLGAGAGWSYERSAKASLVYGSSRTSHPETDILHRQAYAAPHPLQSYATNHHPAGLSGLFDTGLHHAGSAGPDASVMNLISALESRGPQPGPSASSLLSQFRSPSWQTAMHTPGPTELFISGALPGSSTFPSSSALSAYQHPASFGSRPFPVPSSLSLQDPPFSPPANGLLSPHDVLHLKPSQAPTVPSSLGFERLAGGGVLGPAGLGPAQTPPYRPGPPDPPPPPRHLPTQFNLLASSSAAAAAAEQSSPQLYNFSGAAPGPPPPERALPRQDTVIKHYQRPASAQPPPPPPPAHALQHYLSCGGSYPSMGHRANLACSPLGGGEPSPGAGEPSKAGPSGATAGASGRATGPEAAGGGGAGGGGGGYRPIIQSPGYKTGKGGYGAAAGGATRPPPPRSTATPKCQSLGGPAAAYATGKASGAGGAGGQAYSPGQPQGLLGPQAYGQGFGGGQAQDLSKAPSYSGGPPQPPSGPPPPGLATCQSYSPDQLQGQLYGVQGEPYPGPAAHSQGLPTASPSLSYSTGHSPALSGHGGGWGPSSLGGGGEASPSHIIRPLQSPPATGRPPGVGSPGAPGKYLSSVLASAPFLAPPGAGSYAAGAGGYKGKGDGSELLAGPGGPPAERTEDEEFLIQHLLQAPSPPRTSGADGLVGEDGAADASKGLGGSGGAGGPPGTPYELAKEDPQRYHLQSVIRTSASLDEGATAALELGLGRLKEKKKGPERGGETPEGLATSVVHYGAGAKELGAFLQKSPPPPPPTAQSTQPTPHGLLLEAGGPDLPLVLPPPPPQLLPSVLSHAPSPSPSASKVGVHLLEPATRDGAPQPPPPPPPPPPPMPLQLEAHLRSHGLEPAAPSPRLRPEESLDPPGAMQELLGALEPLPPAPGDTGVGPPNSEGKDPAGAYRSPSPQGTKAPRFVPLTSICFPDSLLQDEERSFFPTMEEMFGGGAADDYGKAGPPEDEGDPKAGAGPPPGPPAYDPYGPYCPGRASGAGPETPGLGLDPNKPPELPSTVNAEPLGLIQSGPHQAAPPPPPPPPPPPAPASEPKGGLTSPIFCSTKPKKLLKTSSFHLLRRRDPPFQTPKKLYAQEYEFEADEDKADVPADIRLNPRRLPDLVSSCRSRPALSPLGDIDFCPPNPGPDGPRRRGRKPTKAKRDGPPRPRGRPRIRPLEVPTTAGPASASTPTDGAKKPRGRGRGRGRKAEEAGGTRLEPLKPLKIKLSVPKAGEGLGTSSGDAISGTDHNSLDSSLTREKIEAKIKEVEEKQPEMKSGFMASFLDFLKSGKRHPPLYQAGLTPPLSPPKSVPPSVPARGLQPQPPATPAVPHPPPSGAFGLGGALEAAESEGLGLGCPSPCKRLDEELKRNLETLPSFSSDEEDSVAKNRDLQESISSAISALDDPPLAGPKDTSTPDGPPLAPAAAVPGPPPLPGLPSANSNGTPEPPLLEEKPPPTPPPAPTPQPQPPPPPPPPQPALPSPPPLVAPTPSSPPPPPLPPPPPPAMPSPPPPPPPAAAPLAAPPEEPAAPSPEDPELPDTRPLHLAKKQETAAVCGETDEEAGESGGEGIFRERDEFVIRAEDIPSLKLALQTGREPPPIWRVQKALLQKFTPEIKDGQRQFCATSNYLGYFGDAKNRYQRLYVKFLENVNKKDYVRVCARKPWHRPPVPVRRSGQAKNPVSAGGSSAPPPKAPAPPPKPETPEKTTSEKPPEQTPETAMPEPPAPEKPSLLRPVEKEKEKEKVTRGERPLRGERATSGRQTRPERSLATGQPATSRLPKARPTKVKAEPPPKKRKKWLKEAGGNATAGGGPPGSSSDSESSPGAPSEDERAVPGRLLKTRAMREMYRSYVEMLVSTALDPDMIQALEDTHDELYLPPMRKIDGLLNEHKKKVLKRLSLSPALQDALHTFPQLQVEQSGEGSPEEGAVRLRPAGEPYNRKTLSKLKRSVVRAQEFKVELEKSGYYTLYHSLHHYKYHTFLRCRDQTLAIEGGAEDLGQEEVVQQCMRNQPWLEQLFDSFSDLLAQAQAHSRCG
UniProt P28062: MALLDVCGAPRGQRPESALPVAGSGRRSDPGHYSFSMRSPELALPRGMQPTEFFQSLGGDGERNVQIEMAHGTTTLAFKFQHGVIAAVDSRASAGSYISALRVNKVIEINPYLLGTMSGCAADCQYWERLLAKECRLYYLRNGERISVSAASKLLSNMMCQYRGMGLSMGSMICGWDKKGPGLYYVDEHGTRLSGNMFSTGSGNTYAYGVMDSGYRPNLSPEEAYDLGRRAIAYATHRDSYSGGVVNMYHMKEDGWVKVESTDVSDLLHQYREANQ
UniProt Q9Y5Y4: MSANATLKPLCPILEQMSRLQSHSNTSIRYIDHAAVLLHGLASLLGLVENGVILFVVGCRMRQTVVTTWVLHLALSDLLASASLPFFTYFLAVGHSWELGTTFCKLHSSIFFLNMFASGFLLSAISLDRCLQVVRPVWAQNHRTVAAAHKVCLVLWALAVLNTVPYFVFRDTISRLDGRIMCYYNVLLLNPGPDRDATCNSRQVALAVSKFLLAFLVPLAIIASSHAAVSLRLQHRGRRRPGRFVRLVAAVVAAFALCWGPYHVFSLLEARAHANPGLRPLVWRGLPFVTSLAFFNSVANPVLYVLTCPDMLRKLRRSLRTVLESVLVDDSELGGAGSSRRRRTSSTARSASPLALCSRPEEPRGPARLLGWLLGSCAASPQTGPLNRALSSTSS
UniProt P23467: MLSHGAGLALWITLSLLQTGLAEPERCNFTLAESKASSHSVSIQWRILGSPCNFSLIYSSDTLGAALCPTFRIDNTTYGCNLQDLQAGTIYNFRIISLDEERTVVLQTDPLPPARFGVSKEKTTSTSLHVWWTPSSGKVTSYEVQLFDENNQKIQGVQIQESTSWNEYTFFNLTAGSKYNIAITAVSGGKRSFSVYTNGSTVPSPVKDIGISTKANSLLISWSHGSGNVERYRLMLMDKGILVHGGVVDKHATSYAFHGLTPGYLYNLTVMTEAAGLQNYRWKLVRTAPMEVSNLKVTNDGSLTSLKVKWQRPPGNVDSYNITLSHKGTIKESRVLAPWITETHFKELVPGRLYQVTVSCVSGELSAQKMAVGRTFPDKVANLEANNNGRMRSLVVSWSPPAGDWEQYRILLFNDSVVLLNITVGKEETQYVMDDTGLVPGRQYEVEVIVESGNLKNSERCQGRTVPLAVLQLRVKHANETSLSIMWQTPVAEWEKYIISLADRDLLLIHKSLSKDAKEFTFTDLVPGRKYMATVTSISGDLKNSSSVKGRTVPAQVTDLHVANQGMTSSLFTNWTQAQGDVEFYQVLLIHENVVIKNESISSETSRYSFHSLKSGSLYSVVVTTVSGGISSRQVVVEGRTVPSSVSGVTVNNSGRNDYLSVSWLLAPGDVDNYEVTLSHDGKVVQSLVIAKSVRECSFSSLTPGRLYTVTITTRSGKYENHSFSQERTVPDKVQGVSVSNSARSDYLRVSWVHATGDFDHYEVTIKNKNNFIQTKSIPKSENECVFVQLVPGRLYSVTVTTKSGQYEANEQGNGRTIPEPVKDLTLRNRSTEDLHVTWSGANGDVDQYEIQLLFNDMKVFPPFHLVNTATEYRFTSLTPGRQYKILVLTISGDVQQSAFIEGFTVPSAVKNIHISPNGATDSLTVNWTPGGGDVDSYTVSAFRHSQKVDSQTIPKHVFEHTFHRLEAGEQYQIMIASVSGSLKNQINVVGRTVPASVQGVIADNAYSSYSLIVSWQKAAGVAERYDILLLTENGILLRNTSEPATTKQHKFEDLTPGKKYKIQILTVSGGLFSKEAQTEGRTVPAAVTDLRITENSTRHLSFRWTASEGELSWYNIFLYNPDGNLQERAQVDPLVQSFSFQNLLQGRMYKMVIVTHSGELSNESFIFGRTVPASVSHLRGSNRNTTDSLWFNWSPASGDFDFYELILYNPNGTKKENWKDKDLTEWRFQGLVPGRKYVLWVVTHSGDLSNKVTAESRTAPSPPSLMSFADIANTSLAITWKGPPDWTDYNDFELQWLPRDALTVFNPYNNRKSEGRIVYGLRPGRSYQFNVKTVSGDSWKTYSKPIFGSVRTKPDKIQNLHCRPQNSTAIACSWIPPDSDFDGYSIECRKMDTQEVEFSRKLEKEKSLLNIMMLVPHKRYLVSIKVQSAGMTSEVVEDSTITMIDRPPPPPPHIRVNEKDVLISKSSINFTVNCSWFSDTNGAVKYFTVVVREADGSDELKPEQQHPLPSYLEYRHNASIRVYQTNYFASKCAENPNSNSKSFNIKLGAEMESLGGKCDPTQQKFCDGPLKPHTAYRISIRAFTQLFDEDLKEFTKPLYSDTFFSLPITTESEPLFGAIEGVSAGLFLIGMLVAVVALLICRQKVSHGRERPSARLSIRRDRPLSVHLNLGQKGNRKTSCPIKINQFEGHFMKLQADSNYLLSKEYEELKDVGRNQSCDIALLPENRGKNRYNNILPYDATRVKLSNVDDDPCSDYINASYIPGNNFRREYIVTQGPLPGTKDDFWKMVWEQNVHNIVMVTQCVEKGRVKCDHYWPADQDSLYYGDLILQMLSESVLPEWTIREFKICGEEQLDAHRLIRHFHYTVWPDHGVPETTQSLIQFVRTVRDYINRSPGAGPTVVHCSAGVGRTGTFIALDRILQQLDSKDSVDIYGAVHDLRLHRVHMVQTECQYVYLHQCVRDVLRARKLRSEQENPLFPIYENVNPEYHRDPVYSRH

Experiments:
Assay in all cases: log2 fold change, soluble protein after heating vs DMSO (PISA); higher = thermal stabilisation; K562 lysate, 10 uM; active = over 0.2 and 3.5 SD of the protein, either way, in both replicates (recomputed)
vemurafenib = compound: CCCS(=O)(=O)Nc1ccc(F)c(C(=O)c2c[nH]c3ncc(-c4ccc(Cl)cc4)cc23)c1F [vemurafenib]
Summary of the method: (§1)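 A 30 min treatment with 10 μM compound was applied to crude K562 extract at 1 mg/mL protein in PBS pH 7.4 with 1 mM MgCl2. Heating for 3 min spanned 48°C-58°C, after which aliquots were pooled, adjusted to 0.5% NP-40 at 4°C and spun at 21,000xg for 90 min. TMTpro 16plex LC-MS/MS of the supernatant, with channel sums equalised, gave values recorded as log-two fold change in thermal stability against solvent controls, from duplicates.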

[1] = compound: CCCS(=O)(=O)Nc1ccc(F)c(C(=O)c2c[nH]c3ncc(Cl)cc23)c1F
Summary of the method: as §1

barasertib = compound: CCN(CCCOc1ccc2c(Nc3cc(CC(=O)Nc4cccc(F)c4)[nH]n3)ncnc2c1)CCOP(=O)(O)O [barasertib]
Summary of the method: as §1

[2] = compound: CC[C@@H]1C(=O)N(C)c2cnc(Nc3ccc(C(=O)NC4CCN(C)CC4)cc3OC)nc2N1C1CCCC1
Summary of the method: as §1

volasertib = compound: CC[C@@H]1C(=O)N(C)c2cnc(Nc3ccc(C(=O)N[C@H]4CC[C@H](N5CCN(CC6CC6)CC5)CC4)cc3OC)nc2N1C(C)C [volasertib]
Summary of the method: as §1

[3] = compound: CCn1c(C(=O)N(C2CC2)C2CC2)cc2c3c(ncn3C)c(Nc3cc(C)n(C)n3)nc21
Summary of the method: as §1

[4] = compound: CCn1cc(-c2ccnc3[nH]c(-c4cccc(CN(C)C)c4)cc23)c(-c2ccc(NC(=O)N(C)C)cc2)n1
Summary of the method: as §1

[5] = compound: CN1CCC(CNc2ccc3ncc(-c4cccc(OC(F)(F)F)c4)n3n2)CC1
Summary of the method: as §1

saracatinib = compound: CN1CCN(CCOc2cc(OC3CCOCC3)c3c(Nc4c(Cl)ccc5c4OCO5)ncnc3c2)CC1 [saracatinib]
Summary of the method: as §1

sotrastaurin = compound: CN1CCN(c2nc(C3=C(c4c[nH]c5ccccc45)C(=O)NC3=O)c3ccccc3n2)CC1 [sotrastaurin]
Summary of the method: as §1

alvocidib = compound: CN1CC[C@H](c2c(O)cc(O)c3c(=O)cc(-c4ccccc4Cl)oc23)[C@H](O)C1 [alvocidib]
Summary of the method: as §1

Tubastatin A = compound: CN1CCc2c(c3ccccc3n2Cc2ccc(C(=O)NO)cc2)C1 [Tubastatin A]
Summary of the method: as §1

[6] = compound: CNC(=O)C1=CC=CC=C1NC2=NC(=NC=C2Cl)NC3=C(C=C(C=C3)N4CCOCC4)OC
Summary of the method: as §1

defactinib = compound: CNC(=O)c1ccc(Nc2ncc(C(F)(F)F)c(NCc3nccnc3N(C)S(C)(=O)=O)n2)cc1 [defactinib]
Summary of the method: as §1

[7] = compound: CNc1nc(-c2ccc3c(N)n[nH]c3c2)cc(N2C[C@@H](C(=O)NC3CCCCC3)CC[C@H]2C)n1
Summary of the method: as §1

encorafenib = compound: COC(=O)N[C@@H](C)CNc1nccc(-c2cn(C(C)C)nc2-c2cc(Cl)cc(NS(C)(=O)=O)c2F)n1 [encorafenib]
Summary of the method: as §1

[8] = compound: COC(=O)[C@H](CCSC)NC(=O)C1=C(C=C(C=C1)NC[C@H](CS)N)C2=CC=CC=C2
Summary of the method: as §1

alisertib = compound: COc1cc(Nc2ncc3c(n2)-c2ccc(Cl)cc2C(c2c(F)cccc2OC)=NC3)ccc1C(=O)O [alisertib]
Summary of the method: as §1

[9] = compound: COc1cc2nc(-c3cc(F)ccc3O)nc(N[C@@H]3CNC[C@H]3C(C)(C)O)c2cc1OC
Summary of the method: as §1

gefitinib = compound: COc1cc2ncnc(Nc3ccc(F)c(Cl)c3)c2cc1OCCCN1CCOCC1 [gefitinib]
Summary of the method: as §1

Measured: log2 fold change

PTBP2 isoform 2 (UniProt Q9UKA9)
inactive: vemurafenib 0.125 | [1] 0.002 | barasertib -0.052 | [2] 0.137 | volasertib -0.071 | [3] -0.054 | [4] -0.176 | [5] 0.148 | saracatinib 0.032 | sotrastaurin 0.068 | alvocidib -0.104 | Tubastatin A 0.059 | [6] 0.019 | defactinib 0.057 | [7] 0.033 | encorafenib -0.02 | [8] 0.104 | alisertib -0.033 | [9] 0.022 | gefitinib 0.106

PUF60 isoform 2 (UniProt Q9UHX1)
active: [4] 1.25
inactive: vemurafenib -0.126 | [1] 0.101 | barasertib -0.057 | [2] 0.047 | volasertib 0.021 | [3] -0.062 | [5] -0.115 | sotrastaurin -0.043 | alvocidib 0.223 | Tubastatin A 0.003 | [6] 0.264 | defactinib 0.108 | encorafenib 0.039 | [8] -0.12 | alisertib -0.076 | [9] 0.038 | gefitinib 0.044

PRR4 (UniProt Q16378)
active: [5] -1.21
inactive: vemurafenib 0.367 | [1] 0.038 | [2] -0.21 | volasertib -0.046 | [3] -0.005 | [4] 0.358 | alvocidib -0.033 | Tubastatin A 0.181 | [6] 0.215 | defactinib 0.08 | encorafenib -0.396 | [8] 0.126 | alisertib 0.075 | [9] -0.011 | gefitinib 0.026

PRRC2B (UniProt H0Y412)
inactive: [3] 0.009 | Tubastatin A 0.009 | [6] 0.095

PTPN11 (UniProt Q06124)
inactive: [4] -0.067 | [5] 0.012 | alvocidib -0.008

PSMC5 (UniProt J3KRP2)
inactive: [1] -0.09 | volasertib -0.047 | alisertib -0.057 | [9] 0.064 | gefitinib -0.006

PTBP1, A0A0U1RRM4
inactive: [1] 0.069 | volasertib 0.082 | [9] -0.081

PSMA7 isoform 2 (UniProt O14818)
inactive: [2] 0.09 | saracatinib 0.043 | sotrastaurin 0.193 | [7] -0.147 | encorafenib 0.005 | [8] 0.125 | alisertib 0.201 | gefitinib 0.115

PTGES3 isoform 4 (UniProt Q15185)
inactive: barasertib -0.036 | [3] 0.159 | Tubastatin A -0.311

PTMA isoform 2 (UniProt P06454)
inactive: barasertib -0.09

PRR16 (UniProt Q569H4)
inactive: sotrastaurin 0.021

PTEN isoform 2 (UniProt P60484)
inactive: [1] 0.043 | barasertib 0.018 | [2] 0.21 | volasertib -0.055 | [3] -0.002 | [4] -0.088 | [5] 0.14 | saracatinib 0.093 | sotrastaurin 0.094 | alvocidib 0.167 | Tubastatin A 0.109 | [6] -0.087 | [7] -0.038 | encorafenib 0.016 | [8] -0.012 | alisertib 0.033 | [9] -0.073 | gefitinib 0.048

PTGER3 isoform 2 (UniProt P43115)
inactive: [1] 0.128 | volasertib -0.06 | sotrastaurin 0.117 | [9] 0.141

PTK2 isoform 2 (UniProt Q05397)
inactive: [1] -0.101 | barasertib 0.05 | [2] -0.076 | volasertib -0.387 | saracatinib -0.063 | [6] 0.003 | [7] 0.018 | encorafenib -0.058 | [8] -0.129 | [9] 0.053

PSMD1, A0A087WW66
inactive: [1] -0.15 | barasertib -0.056 | volasertib -0.186 | [9] 0.037

PTMS (UniProt F5GXR3)
inactive: vemurafenib 0.052 | defactinib 0.06

PRSS2 (UniProt P07478)
inactive: [1] -0.033 | volasertib -0.057 | [4] -0.024 | [5] 0.06 | saracatinib 0.057 | alvocidib -0.013 | [7] -0.049 | [9] -0.106

PTPN14 (UniProt Q15678)
inactive: [2] 0.346 | sotrastaurin 0.101 | encorafenib -0.046 | [8] 0.049

PSIP1 (UniProt V9GYT7)
inactive: barasertib 0.134 | [3] 0.013 | [4] -0.119 | [5] -0.12 | sotrastaurin 0.006 | alvocidib -0.025 | Tubastatin A 0.123 | [6] 0.042

PRSS50 (UniProt Q9UI38)
inactive: [1] 0.014 | barasertib 0.13 | [2] 0.073 | volasertib -0.033 | [4] -0.105 | [5] 0.08 | saracatinib 0.032 | alvocidib -0.013 | [7] -0.01 | encorafenib 0.087 | [8] -0.156 | [9] 0.031

Copied from above (three entries):
PTMS (UniProt F5GXR3)
inactive: vemurafenib 0.052 | defactinib 0.06

PRSS2 (UniProt P07478)
inactive: [1] -0.033 | volasertib -0.057 | [4] -0.024 | [5] 0.06 | saracatinib 0.057 | alvocidib -0.013 | [7] -0.049 | [9] -0.106

PTPN14 (UniProt Q15678)
inactive: [2] 0.346 | sotrastaurin 0.101 | encorafenib -0.046 | [8] 0.049

(continued)

PSEN2 (UniProt P49810)
inactive: barasertib -0.01 | [2] 0.036 | [3] -0.044 | [4] -0.189 | [5] 0.051 | saracatinib -0.032 | sotrastaurin 0.132 | alvocidib -0.014 | Tubastatin A -0.092 | [7] -0.002 | encorafenib 0.121 | [8] -0.158 | alisertib 0.178 | gefitinib 0.096

PSME3 (UniProt K7EMD0)
inactive: [1] -0.041 | volasertib -0.009 | alisertib -0.06 | [9] 0.052 | gefitinib 0.101

PRRG1 (UniProt O14668)
inactive: [3] 0.052 | Tubastatin A -0.032

PSMD6 (UniProt Q15008)
inactive: [1] 0.112 | barasertib -0.068 | volasertib -0.058 | [4] 0.157 | [5] -0.055 | sotrastaurin -0.128 | alvocidib -0.277 | alisertib -0.022 | [9] 0.019 | gefitinib -0.034

PSTK (UniProt H7BYY4)
inactive: [4] 0.1 | [5] -0.207 | saracatinib -0.162 | alvocidib -0.019 | [7] -0.116

PUM2 (UniProt C9JW01)
inactive: [4] 0.03 | [5] 0.201 | alvocidib -0.106

PRSS8 (UniProt Q16651)
inactive: [3] -0.223 | [4] 0.092 | [5] 0.03 | saracatinib 0.002 | sotrastaurin 0.059 | alvocidib 0.028 | Tubastatin A 0.038 | [6] -0.008 | [7] -0.027

PRR12 (UniProt Q9ULL5)
inactive: barasertib 0.064 | [3] 0.12 | [4] -0.274 | [5] 0.032 | sotrastaurin 0.001 | alvocidib 0.04 | Tubastatin A -0.12

PSMA7 (UniProt H0Y586)
inactive: [1] 0.099 | barasertib -0.135 | volasertib -0.03 | [4] -0.204 | [5] 0.123 | sotrastaurin 0.04 | alvocidib 0.142 | [6] 0.164 | alisertib 0.134 | [9] -0.051 | gefitinib 0.058

PTPA (UniProt A6PVN8)
inactive: [2] -0.25 | encorafenib 0.028 | [8] 0.281

PSMB8 (UniProt P28062)
inactive: [1] 0.064 | barasertib 0.009 | [2] 0.041 | volasertib 0.012 | [3] 0.034 | [4] -0.013 | [5] 0.03 | saracatinib -0.048 | sotrastaurin -0.046 | alvocidib -0.043 | Tubastatin A -0.012 | [6] -0.116 | [7] 0.094 | encorafenib 0.041 | [8] -0.058 | [9] -0.033

PTPA (UniProt Q5T949)
inactive: [1] 0.043 | volasertib -0.142 | alisertib 0.106 | [9] 0.124 | gefitinib -0.173

PRXL2A (UniProt Q9BRX8)
inactive: barasertib 0.063 | [3] -0.14 | [4] 0.089 | [5] 0.116 | saracatinib 0.005 | alvocidib -0.004 | Tubastatin A 0.095 | [6] 0.064 | [7] 0.177 | alisertib 0.012 | gefitinib -0.025

PWWP2A (UniProt Q96N64)
inactive: [4] -0.157 | [5] 0.337 | alvocidib -0.165

PSAP isoform 2 (UniProt P07602)
inactive: [6] -0.169

PTGDR2 (UniProt Q9Y5Y4)
inactive: [4] -0.19 | [5] 0.03 | alvocidib 0.043

PWWP2B (UniProt Q6NUJ5)
inactive: [1] -0.071 | volasertib -0.032 | [4] -0.187 | [5] 0.02 | saracatinib -0.076 | alvocidib -0.004 | [7] -0.025 | [9] 0.037

PTPN11, A0A0U1RRI0
inactive: [1] -0.036 | volasertib 0 | [9] -0.113

PTPRB isoform 3 (UniProt P23467)
inactive: [1] 0.202 | barasertib 0.211 | volasertib 0.093 | saracatinib -0.093 | [7] 0.057 | alisertib 0 | [9] -0.196 | gefitinib -0.04
